Assay results from ChEMBL document CHEMBL5674883, “The Heterochromatin Landscape in Migrating Cells and the Importance of H3K27me3 for Associated Transcriptome Alterations” (Cells, 2018).
This continues a long series; more values of the same kind are listed elsewhere.

Chains of the proteins cited; added tags and fusions are not shown.
UniProt Q61188, whole entry: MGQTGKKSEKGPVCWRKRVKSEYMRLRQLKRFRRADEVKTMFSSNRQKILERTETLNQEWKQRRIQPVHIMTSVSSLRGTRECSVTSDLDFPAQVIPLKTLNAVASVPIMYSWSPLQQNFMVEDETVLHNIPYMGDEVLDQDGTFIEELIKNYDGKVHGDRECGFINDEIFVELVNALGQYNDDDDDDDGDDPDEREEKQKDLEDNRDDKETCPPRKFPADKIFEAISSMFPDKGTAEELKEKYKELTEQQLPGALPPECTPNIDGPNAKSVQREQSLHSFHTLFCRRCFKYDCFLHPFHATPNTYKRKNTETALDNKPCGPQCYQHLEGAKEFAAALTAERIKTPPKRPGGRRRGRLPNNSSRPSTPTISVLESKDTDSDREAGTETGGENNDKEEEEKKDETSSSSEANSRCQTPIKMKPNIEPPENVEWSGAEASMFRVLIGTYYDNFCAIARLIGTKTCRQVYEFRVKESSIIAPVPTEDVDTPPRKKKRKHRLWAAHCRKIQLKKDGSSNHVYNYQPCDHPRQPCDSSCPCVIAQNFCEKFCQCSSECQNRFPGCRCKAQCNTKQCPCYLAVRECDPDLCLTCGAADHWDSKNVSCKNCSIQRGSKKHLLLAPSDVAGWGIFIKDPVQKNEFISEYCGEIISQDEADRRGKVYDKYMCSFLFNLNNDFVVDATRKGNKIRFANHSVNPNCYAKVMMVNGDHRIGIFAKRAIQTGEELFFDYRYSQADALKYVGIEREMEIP

Key:
Format in all cases: cell-based
[1] = target: Histone-lysine N-methyltransferase EZH2 (Mus musculus) (UniProt Q61188); test: Inhibition of EZH2 in mouse B16-F1 migrating cells assessed as fold change in H3K27me3-dependent regulated Hes1-mRNA expression at 3 uM measured by ChIP-seq analysis relative to control cells
[2] = target: Histone-lysine N-methyltransferase EZH2 (Mus musculus) (UniProt Q61188); test: Inhibition of EZH2 in mouse B16-F1 migrating cells assessed as fold change in H3K27me3-dependent regulated Hmgn5-mRNA expression at 3 uM measured by ChIP-seq analysis relative to control cells
[3] = target: Histone-lysine N-methyltransferase EZH2 (Mus musculus) (UniProt Q61188); test: Inhibition of EZH2 in mouse B16-F1 migrating cells assessed as fold change in H3K27me3-independent regulated Ncald-mRNA expression at 3 uM measured by ChIP-seq analysis relative to control cells
[4] = target: Histone-lysine N-methyltransferase EZH2 (Mus musculus) (UniProt Q61188); test: Inhibition of EZH2 in mouse B16-F1 migrating cells assessed as fold change in H3K27me3-buffered regulated Wfs1-mRNA expression at 3 uM measured by ChIP-seq analysis relative to control cells
[5] = target: Histone-lysine N-methyltransferase EZH2 (Mus musculus) (UniProt Q61188); test: Inhibition of EZH2 in mouse B16-F1 migrating cells assessed as fold change in H3K27me3-buffered regulated Hoxd13-mRNA expression at 3 uM measured by ChIP-seq analysis relative to control cells
[6] = target: Histone-lysine N-methyltransferase EZH2 (Mus musculus) (UniProt Q61188); test: Inhibition of EZH2 in mouse B16-F1 migrating cells assessed as fold change in H3K27me3-buffered regulated Zfp638-mRNA expression at 3 uM measured by ChIP-seq analysis relative to control cells
[7] = target: Histone-lysine N-methyltransferase EZH2 (Mus musculus) (UniProt Q61188); test: Inhibition of EZH2 in mouse B16-F1 migrating cells assessed as fold change in H3K27me3-buffered regulated Cdc14a-mRNA expression at 3 uM measured by ChIP-seq analysis relative to control cells
[8] = target: Histone-lysine N-methyltransferase EZH2 (Mus musculus) (UniProt Q61188); test: Inhibition of EZH2 in mouse B16-F1 migrating cells assessed as fold change in H3K27me3-buffered regulated Palb2-mRNA expression at 3 uM measured by ChIP-seq analysis relative to control cells
[9] = target: Histone-lysine N-methyltransferase EZH2 (Mus musculus) (UniProt Q61188); test: Inhibition of EZH2 in mouse B16-F1 migrating cells assessed as fold change in H3K27me3-buffered regulated Atxn7l2-mRNA expression at 3 uM measured by ChIP-seq analysis relative to control cells
[10] = target: Histone-lysine N-methyltransferase EZH2 (Mus musculus) (UniProt Q61188); test: Inhibition of EZH2 in mouse B16-F1 migrating cells assessed as fold change in H3K27me3-buffered regulated Carf-mRNA expression at 3 uM measured by ChIP-seq analysis relative to control cells
[11] = target: Histone-lysine N-methyltransferase EZH2 (Mus musculus) (UniProt Q61188); test: Inhibition of EZH2 in mouse B16-F1 migrating cells assessed as fold change in H3K27me3-buffered regulated Atad5-mRNA expression at 3 uM measured by ChIP-seq analysis relative to control cells
[12] = target: Histone-lysine N-methyltransferase EZH2 (Mus musculus) (UniProt Q61188); test: Inhibition of EZH2 in mouse B16-F1 migrating cells assessed as fold change in H3K27me3-independent regulated Ctgf-mRNA expression at 3 uM measured by ChIP-seq analysis relative to control cells
[13] = target: Histone-lysine N-methyltransferase EZH2 (Mus musculus) (UniProt Q61188); test: Inhibition of EZH2 in mouse B16-F1 migrating cells assessed as fold change in H3K27me3-buffered regulated Pola2-mRNA expression at 3 uM measured by ChIP-seq analysis relative to control cells
[14] = target: T1, RNA polymerase II (Mus musculus) (UniProt P08775+Q8CFI7+P97760+A0A3Q4L2S8+Q80UW8+P61219+P62488+Q923G2+P60898+O08740+Q63871+P62876); test: Inhibition of RNA polymerase II in mouse B16-F1 migrating cells assessed as fold change in Tpgs1-RNA stability at 0.1 mM measured by ChIP-seq analysis relative to control cells
[15] = target: T1, RNA polymerase II (Mus musculus); test: Inhibition of RNA polymerase II in mouse B16-F1 migrating cells assessed as fold change in Matr3-RNA stability at 0.1 mM measured by ChIP-seq analysis relative to control cells
[16] = target: T1, RNA polymerase II (Mus musculus); test: Inhibition of RNA polymerase II in mouse B16-F1 migrating cells assessed as fold change in Aldoart1-RNA stability at 0.1 mM measured by ChIP-seq analysis relative to control cells
[17] = target: T1, RNA polymerase II (Mus musculus); test: Inhibition of RNA polymerase II in mouse B16-F1 migrating cells assessed as fold change in Eif1b-RNA stability at 0.1 mM measured by ChIP-seq analysis relative to control cells
[18] = target: T1, RNA polymerase II (Mus musculus); test: Inhibition of RNA polymerase II in mouse B16-F1 migrating cells assessed as fold change in Cdkn2aip-RNA stability at 0.1 mM measured by ChIP-seq analysis relative to control cells
[19] = target: T1, RNA polymerase II (Mus musculus); test: Inhibition of RNA polymerase II in mouse B16-F1 migrating cells assessed as fold change in Msl2-RNA stability at 0.1 mM measured by ChIP-seq analysis relative to control cells
[20] = target: T1, RNA polymerase II (Mus musculus); test: Inhibition of RNA polymerase II in mouse B16-F1 migrating cells assessed as fold change in Lmf1-RNA stability at 0.1 mM measured by ChIP-seq analysis relative to control cells
[21] = target: T1, RNA polymerase II (Mus musculus); test: Inhibition of RNA polymerase II in mouse B16-F1 migrating cells assessed as fold change in Il13ra1-RNA stability at 0.1 mM measured by ChIP-seq analysis relative to control cells
[22] = target: T1, RNA polymerase II (Mus musculus); test: Inhibition of RNA polymerase II in mouse B16-F1 migrating cells assessed as fold change in Itga1-RNA stability at 0.1 mM measured by ChIP-seq analysis relative to control cells
[23] = target: T1, RNA polymerase II (Mus musculus); test: Inhibition of RNA polymerase II in mouse B16-F1 migrating cells assessed as fold change in Pbrm1-RNA stability at 0.1 mM measured by ChIP-seq analysis relative to control cells
[24] = target: T1, RNA polymerase II (Mus musculus); test: Inhibition of RNA polymerase II in mouse B16-F1 migrating cells assessed as fold change in Topbp1-RNA stability at 0.1 mM measured by ChIP-seq analysis relative to control cells
[25] = target: T1, RNA polymerase II (Mus musculus); test: Inhibition of RNA polymerase II in mouse B16-F1 migrating cells assessed as fold change in Ppm1d-RNA stability at 0.1 mM measured by ChIP-seq analysis relative to control cells
[26] = target: T1, RNA polymerase II (Mus musculus); test: Inhibition of RNA polymerase II in mouse B16-F1 migrating cells assessed as fold change in Plcb4-RNA stability at 0.1 mM measured by ChIP-seq analysis relative to control cells
[27] = target: T1, RNA polymerase II (Mus musculus); test: Inhibition of RNA polymerase II in mouse B16-F1 migrating cells assessed as fold change in Use1-RNA stability at 0.1 mM measured by ChIP-seq analysis relative to control cells
[28] = target: T1, RNA polymerase II (Mus musculus); test: Inhibition of RNA polymerase II in mouse B16-F1 migrating cells assessed as fold change in Zfp644-RNA stability at 0.1 mM measured by ChIP-seq analysis relative to control cells
[29] = target: T1, RNA polymerase II (Mus musculus); test: Inhibition of RNA polymerase II in mouse B16-F1 migrating cells assessed as fold change in Smpd1-RNA stability at 0.1 mM measured by ChIP-seq analysis relative to control cells
[30] = target: T1, RNA polymerase II (Mus musculus); test: Inhibition of RNA polymerase II in mouse B16-F1 migrating cells assessed as fold change in Stub1-RNA stability at 0.1 mM measured by ChIP-seq analysis relative to control cells

Q: For `CCCc1cc(C)[nH]c(=O)c1CNC(=O)c1cc(-c2ccnc(N3CCN(C)CC3)c2)cc2c1cnn2C(C)C`, which log2FC [1] is on record?
A: Its log2FC is 0.31.

Q: And the log2FC [2]?
A: Its log2FC is -0.32.

Q: What about the log2FC [3] of the same compound?
A: Its log2FC is 0.78.

Q: And the log2FC [4]?
A: The log2FC was 0.47.

Q: And the log2FC [5]?
A: Its log2FC is -0.4.

Q: And the log2FC [6]?
A: Its log2FC is -0.42.

Q: What about the log2FC [7] of the same compound?
A: Its log2FC is -0.42.

Q: And the log2FC [8]?
A: Its log2FC is -0.51.

Q: And the log2FC [9]?
A: Its log2FC is -0.41.

Q: What about the log2FC [10] of the same compound?
A: The log2FC was -0.48.

Q: And the log2FC [11]?
A: The log2FC was -0.5.

Q: And the log2FC [12]?
A: Its log2FC is 0.79.

Q: What about the log2FC [13] of the same compound?
A: Its log2FC is -0.4.

Q: With `OC[C@H]1O[C@@H](n2cnc3cc(Cl)c(Cl)cc32)[C@H](O)[C@@H]1O` as the compound, how does the log2FC [14] read?
A: Its log2FC is 0.59.

Q: What about the log2FC [15] of the same compound?
A: The log2FC was -0.85.

Q: And the log2FC [16]?
A: The log2FC was 0.94.

Q: What about the log2FC [17] of the same compound?
A: Its log2FC is 0.54.

Q: What about the log2FC [18] of the same compound?
A: Its log2FC is -1.07.

Q: What about the log2FC [19] of the same compound?
A: Its log2FC is -0.66.

Q: What about the log2FC [20] of the same compound?
A: The log2FC was 0.39.

Q: And the log2FC [21]?
A: The log2FC was -0.69.

Q: What about the log2FC [22] of the same compound?
A: Its log2FC is -0.64.

Q: What about the log2FC [23] of the same compound?
A: Its log2FC is -0.54.

Q: What about the log2FC [24] of the same compound?
A: The log2FC was -0.43.

Q: And the log2FC [25]?
A: The log2FC was -0.77.

Q: And the log2FC [26]?
A: The log2FC was -0.46.

Q: What about the log2FC [27] of the same compound?
A: The log2FC was 0.56.

Q: What about the log2FC [28] of the same compound?
A: Its log2FC is -0.59.

Q: What about the log2FC [29] of the same compound?
A: Its log2FC is 0.54.

Q: What about the log2FC [30] of the same compound?
A: The log2FC was 0.38.
